According to paper PMC10082843:
No constants are given. Whether binding was seen depends on the method and setting. In cells and extracts the contact can be indirect. A result given as binding can be weak or reduced; the word gives no strength.

The chains behind the UniProt entries cited, without tags or fusion partners. Where a name states a change or a piece, a line headed by the entry shows the natural chain unless it says otherwise.
UniProt P07305: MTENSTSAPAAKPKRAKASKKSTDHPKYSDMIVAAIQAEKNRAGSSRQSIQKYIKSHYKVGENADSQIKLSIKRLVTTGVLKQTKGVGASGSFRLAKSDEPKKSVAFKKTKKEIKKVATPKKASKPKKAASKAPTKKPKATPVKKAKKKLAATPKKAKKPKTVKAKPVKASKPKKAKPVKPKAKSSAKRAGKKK
UniProt P10922: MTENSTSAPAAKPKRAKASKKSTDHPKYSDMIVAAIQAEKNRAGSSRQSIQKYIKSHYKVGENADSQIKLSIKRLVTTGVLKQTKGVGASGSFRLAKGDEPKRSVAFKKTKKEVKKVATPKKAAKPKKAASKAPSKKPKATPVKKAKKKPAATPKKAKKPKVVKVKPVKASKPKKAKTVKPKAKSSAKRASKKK
UniProt P25445: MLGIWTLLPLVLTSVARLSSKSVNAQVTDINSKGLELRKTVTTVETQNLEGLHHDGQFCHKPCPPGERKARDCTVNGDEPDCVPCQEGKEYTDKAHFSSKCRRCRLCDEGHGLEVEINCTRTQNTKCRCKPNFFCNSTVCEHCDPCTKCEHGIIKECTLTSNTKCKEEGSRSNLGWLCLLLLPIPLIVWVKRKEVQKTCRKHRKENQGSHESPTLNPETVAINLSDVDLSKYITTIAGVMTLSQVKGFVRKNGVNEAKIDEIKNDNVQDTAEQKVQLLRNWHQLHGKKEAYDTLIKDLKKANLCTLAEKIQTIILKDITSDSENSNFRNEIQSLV
UniProt P25446: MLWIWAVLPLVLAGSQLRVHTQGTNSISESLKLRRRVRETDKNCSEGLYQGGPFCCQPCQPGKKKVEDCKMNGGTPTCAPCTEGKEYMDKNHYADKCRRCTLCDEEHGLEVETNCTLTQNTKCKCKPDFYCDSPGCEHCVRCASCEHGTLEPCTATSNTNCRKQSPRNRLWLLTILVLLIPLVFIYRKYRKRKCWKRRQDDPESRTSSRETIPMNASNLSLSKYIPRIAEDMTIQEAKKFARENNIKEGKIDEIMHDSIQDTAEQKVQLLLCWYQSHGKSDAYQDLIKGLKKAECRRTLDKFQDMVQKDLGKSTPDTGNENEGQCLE

Legend:
[1] = target: histone H1.0, human (human (endogenous in MDA-MB-231)) (UniProt P07305); assay: co-IP; cells incubated 4 h with the formulations (FKPN and controls), with or without laser (0.3 W/cm^2, 660 nm, 3 min), cultured 4 h more; lysed in RIPA buffer with phosphatase and protease inhibitors; lysates with Flag-conjugated agarose beads at 4 °C for 12 h; eluted with non-reducing sample buffer; western blot
[2] = target: histone H1.0, mouse (mouse (endogenous in 4T1)) (UniProt P10922); assay: as above

Row | Substance | binding [1] | binding [2]
1 | CD95 death domain (DD), human (from UniProt P25445) (domain or fragment) | binds | –
2 | CD95 death domain (DD), mouse (from UniProt P25446) (domain or fragment) | – | binds
